From the supplement of paper PMC12823440, “Inhibitors supercharge kinase turnover through native proteolytic circuits” (Nature, 2025)
Counter-ions that a name gives are not always drawn. The list shows a part of the results. Hit calls seldom repeat between salt and free forms of one compound.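 Kinases were expressed as nanoluciferase fusions in K562 cells and luminescence was read every 4 h between 2 and 18 h as percent of control, DMSO set to 100% and a positive control to 0%. A time point counts as decreased when the signal drops significantly (2 sigma). The hit call is the authors' own, does not follow from the count of time points alone, and its rule is not shown.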

Amino acid sequences for entries named in this document (tags omitted). A change or cut given only in a name is not applied to a line headed by its entry.
UniProt Q06187: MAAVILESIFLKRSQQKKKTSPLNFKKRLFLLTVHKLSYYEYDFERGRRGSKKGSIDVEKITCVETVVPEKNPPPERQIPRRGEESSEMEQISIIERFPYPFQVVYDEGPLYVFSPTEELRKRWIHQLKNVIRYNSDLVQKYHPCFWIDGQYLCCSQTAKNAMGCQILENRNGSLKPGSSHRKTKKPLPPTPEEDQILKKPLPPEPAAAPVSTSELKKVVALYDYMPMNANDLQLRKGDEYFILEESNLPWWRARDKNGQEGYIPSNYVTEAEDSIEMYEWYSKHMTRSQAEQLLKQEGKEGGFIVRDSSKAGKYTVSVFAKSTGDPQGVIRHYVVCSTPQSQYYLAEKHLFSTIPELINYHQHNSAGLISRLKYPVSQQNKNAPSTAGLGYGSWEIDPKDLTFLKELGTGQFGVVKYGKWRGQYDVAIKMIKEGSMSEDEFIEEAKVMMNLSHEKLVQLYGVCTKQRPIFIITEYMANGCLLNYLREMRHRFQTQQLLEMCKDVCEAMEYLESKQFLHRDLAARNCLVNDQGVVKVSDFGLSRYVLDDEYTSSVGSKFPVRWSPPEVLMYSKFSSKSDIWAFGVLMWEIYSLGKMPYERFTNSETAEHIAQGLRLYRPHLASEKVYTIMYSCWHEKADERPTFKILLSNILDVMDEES
UniProt Q00526: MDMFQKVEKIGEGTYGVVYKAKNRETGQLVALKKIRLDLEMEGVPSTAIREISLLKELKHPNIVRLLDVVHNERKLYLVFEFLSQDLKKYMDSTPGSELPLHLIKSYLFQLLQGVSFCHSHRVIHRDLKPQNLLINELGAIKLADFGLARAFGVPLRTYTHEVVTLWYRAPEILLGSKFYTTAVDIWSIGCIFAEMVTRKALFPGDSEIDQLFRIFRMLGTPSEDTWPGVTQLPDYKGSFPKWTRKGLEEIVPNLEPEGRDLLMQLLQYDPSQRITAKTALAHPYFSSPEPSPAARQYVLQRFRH
UniProt P11802: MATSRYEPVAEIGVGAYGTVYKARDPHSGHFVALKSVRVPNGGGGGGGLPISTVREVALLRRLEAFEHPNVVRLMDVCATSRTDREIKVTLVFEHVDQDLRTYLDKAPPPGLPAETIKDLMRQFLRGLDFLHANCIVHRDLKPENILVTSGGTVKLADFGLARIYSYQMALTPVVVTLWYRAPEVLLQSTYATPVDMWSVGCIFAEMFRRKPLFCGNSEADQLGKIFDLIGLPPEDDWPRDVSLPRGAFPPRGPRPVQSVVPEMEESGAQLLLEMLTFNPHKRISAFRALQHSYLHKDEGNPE
UniProt Q00535, whole entry, looked up: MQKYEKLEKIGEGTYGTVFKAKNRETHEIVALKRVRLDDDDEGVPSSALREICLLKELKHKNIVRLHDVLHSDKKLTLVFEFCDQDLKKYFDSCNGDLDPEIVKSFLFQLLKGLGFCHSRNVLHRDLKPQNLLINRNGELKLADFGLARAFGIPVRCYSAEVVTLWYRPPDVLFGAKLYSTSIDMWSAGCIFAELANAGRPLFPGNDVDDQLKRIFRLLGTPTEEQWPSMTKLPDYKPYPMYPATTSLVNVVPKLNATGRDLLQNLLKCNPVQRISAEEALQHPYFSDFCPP
UniProt Q00534, whole entry: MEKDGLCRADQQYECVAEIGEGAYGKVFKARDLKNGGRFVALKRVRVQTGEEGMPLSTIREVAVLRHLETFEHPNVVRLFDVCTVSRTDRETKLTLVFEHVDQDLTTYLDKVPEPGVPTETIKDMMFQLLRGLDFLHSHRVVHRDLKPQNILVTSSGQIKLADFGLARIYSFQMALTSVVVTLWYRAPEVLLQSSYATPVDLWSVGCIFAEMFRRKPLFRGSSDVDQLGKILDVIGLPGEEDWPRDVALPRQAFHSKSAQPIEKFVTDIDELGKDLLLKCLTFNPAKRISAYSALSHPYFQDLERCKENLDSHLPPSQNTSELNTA
UniProt P50613: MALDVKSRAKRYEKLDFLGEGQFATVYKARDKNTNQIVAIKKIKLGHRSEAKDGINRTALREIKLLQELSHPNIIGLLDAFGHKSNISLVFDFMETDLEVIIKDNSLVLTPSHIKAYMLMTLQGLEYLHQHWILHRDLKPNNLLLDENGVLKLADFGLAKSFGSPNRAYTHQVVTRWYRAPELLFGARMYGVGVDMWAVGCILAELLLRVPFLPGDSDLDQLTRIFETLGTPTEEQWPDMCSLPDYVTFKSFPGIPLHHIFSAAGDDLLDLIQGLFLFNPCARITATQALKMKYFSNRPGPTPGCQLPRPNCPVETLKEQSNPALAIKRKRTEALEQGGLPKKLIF
UniProt P50750, whole entry: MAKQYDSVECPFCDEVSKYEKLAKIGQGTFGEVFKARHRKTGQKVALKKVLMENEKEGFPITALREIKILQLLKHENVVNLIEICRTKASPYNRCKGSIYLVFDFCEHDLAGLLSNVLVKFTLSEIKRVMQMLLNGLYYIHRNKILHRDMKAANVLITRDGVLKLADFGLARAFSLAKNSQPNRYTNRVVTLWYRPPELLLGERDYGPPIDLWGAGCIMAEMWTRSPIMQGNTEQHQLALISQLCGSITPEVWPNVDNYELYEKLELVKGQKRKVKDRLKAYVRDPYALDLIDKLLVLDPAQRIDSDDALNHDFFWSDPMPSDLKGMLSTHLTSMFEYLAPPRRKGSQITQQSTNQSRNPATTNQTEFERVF
UniProt P07333, whole entry: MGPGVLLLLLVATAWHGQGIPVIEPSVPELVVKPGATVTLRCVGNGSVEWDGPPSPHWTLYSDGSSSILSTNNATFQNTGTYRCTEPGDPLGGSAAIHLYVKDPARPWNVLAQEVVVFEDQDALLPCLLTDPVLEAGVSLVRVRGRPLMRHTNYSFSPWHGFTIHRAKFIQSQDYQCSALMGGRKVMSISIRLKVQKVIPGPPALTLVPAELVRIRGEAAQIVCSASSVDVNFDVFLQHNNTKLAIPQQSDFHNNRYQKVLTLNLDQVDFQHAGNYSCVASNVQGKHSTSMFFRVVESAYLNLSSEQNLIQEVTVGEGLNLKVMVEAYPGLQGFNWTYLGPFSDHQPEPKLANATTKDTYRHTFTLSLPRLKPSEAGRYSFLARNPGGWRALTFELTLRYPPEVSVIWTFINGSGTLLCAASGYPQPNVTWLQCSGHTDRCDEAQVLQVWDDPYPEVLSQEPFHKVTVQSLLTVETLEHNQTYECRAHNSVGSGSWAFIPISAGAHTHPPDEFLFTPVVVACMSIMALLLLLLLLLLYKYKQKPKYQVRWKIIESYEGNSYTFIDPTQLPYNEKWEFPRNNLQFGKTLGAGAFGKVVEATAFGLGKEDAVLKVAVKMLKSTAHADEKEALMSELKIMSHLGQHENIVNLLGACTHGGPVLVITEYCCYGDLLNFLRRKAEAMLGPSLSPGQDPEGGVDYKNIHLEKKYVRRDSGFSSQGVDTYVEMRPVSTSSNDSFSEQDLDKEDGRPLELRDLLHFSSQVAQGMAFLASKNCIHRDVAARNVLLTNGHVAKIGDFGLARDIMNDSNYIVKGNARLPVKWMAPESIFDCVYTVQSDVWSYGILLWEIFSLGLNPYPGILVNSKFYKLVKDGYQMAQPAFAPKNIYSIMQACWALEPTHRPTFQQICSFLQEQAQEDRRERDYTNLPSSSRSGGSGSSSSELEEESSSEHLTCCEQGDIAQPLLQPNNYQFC
UniProt P41240: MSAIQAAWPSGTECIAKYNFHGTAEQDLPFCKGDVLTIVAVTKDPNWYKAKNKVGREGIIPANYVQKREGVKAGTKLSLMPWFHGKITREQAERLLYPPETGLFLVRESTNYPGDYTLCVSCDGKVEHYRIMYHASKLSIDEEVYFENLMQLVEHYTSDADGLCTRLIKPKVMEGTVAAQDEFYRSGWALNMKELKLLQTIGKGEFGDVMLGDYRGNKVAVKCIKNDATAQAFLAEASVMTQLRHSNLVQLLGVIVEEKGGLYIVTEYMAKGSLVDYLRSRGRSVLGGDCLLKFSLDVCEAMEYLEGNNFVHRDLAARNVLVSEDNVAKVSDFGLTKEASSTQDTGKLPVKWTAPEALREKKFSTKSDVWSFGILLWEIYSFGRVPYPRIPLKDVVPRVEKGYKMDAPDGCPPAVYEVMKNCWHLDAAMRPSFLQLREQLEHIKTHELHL
UniProt P48729: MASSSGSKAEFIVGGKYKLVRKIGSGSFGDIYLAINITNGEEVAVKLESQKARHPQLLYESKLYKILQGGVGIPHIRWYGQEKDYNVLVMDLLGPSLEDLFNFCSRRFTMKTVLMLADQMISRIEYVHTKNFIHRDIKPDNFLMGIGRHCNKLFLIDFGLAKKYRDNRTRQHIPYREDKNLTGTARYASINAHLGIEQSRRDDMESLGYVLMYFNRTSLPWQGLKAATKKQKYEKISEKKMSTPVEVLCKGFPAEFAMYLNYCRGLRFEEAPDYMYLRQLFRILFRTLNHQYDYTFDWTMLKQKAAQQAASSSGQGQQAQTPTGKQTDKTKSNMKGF
UniProt P48730: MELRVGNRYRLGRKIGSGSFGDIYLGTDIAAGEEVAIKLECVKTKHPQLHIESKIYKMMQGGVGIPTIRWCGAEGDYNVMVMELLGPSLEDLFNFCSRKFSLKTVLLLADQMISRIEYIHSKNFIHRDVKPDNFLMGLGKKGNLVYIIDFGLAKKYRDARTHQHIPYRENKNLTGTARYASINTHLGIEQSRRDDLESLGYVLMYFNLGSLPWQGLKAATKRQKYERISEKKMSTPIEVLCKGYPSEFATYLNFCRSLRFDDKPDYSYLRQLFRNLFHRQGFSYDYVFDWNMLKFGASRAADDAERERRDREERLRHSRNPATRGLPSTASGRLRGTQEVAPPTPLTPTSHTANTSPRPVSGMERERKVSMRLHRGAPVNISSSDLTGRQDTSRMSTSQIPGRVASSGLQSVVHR
UniProt Q08345: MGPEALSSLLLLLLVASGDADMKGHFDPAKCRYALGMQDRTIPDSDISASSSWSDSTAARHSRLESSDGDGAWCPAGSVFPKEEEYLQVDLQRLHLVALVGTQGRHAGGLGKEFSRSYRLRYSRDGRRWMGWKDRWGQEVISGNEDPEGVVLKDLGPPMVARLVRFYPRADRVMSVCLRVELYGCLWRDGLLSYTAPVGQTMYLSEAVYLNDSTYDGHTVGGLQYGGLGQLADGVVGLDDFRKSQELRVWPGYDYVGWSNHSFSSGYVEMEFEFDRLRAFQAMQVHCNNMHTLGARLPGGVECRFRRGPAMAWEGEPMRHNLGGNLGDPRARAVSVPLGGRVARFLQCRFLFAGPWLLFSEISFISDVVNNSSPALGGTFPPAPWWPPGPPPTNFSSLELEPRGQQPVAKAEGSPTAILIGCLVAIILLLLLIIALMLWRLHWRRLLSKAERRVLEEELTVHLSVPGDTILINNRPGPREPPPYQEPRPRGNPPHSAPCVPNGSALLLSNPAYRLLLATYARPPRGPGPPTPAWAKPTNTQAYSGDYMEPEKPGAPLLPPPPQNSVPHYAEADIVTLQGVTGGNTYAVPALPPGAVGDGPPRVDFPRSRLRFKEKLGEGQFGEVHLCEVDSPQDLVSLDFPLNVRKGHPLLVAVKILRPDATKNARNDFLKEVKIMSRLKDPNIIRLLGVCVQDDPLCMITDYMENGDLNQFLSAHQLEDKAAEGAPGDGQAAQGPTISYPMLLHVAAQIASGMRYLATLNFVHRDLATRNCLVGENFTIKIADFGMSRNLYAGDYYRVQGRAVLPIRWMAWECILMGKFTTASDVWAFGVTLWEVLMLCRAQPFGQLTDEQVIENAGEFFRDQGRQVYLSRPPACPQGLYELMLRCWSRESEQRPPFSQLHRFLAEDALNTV
UniProt Q9Y463, whole entry, looked up: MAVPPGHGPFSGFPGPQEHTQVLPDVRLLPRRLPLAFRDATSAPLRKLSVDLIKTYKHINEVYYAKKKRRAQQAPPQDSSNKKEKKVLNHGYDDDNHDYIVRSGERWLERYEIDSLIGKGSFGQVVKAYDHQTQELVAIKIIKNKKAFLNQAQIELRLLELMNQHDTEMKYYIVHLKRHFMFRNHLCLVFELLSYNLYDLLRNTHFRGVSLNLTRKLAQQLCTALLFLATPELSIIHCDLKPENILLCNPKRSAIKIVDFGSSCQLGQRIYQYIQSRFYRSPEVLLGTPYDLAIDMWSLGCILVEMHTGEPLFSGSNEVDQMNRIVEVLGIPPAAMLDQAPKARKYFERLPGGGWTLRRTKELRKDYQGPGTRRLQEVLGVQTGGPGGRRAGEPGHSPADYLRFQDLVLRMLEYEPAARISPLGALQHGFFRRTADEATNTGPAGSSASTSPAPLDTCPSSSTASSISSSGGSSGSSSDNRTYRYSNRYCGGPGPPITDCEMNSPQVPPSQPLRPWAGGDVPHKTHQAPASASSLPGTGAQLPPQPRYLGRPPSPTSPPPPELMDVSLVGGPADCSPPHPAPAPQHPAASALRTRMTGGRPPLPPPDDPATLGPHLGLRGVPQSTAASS

Experiments:
Assay in all cases: kinase-Nluc reporter destabilization hit call (1 = scored as downregulated) (binary); higher = compound decreases kinase abundance
Conditions in all cases: K562; 2-18 h
[1] = test system: BRAF_V600E
[2] = target: BTK (UniProt Q06187)
[3] = target: CAMK2A (UniProt Q9UQM7)
[4] = target: CAMK2G (UniProt Q13555)
[5] = target: CDK10 (UniProt Q15131)
[6] = target: CDK2 (UniProt P24941)
[7] = target: CDK3 (UniProt Q00526)
[8] = target: CDK4 (UniProt P11802)
[9] = target: CDK5 (UniProt Q00535)
[10] = target: CDK6 (UniProt Q00534)
[11] = target: CDK7 (UniProt P50613)
[12] = target: CDK9 (UniProt P50750)
[13] = target: CHEK2 (UniProt O96017)
[14] = target: CSF1R (UniProt P07333)
[15] = target: CSK (UniProt P41240)
[16] = target: CSNK1A1 (UniProt P48729)
[17] = target: CSNK1D (UniProt P48730)
[18] = target: DDR1 (UniProt Q08345)
[19] = target: DYRK1B (UniProt Q9Y463)
[20] = target: DYRK2 (UniProt Q92630)

SMILES	kinase-Nluc reporter destabilization hit call [1]	kinase-Nluc reporter destabilization hit call [2]	kinase-Nluc reporter destabilization hit call [3]	kinase-Nluc reporter destabilization hit call [4]	kinase-Nluc reporter destabilization hit call [5]	kinase-Nluc reporter destabilization hit call [6]	kinase-Nluc reporter destabilization hit call [7]	kinase-Nluc reporter destabilization hit call [8]	kinase-Nluc reporter destabilization hit call [9]	kinase-Nluc reporter destabilization hit call [10]	kinase-Nluc reporter destabilization hit call [11]	kinase-Nluc reporter destabilization hit call [12]	kinase-Nluc reporter destabilization hit call [13]	kinase-Nluc reporter destabilization hit call [14]	kinase-Nluc reporter destabilization hit call [15]	kinase-Nluc reporter destabilization hit call [16]	kinase-Nluc reporter destabilization hit call [17]	kinase-Nluc reporter destabilization hit call [18]	kinase-Nluc reporter destabilization hit call [19]	kinase-Nluc reporter destabilization hit call [20]
Cc1ccc(-c2nn(C(C)(C)CNC(=O)c3ccncc3)c3ncnc(N)c23)cc1 (2.5 µM)	inactive: 0	inactive: 0	inactive: 0	inactive: 0	inactive: 0	inactive: 0	inactive: 0	inactive: 0	inactive: 0	inactive: 0	inactive: 0	inactive: 0	inactive: 0	inactive: 0	inactive: 0	inactive: 0	inactive: 0	inactive: 0	inactive: 0	inactive: 0
CC[C@H](Nc1ncnc2[nH]cnc12)c1oc2ccccc2c(=O)c1-c1cccc(F)c1 [Tenalisib] (10 µM)	inactive: 0	inactive: 0	inactive: 0	inactive: 0	inactive: 0	inactive: 0	inactive: 0	inactive: 0	inactive: 0	inactive: 0	inactive: 0	inactive: 0	inactive: 0	inactive: 0	inactive: 0	inactive: 0	inactive: 0	inactive: 0	inactive: 0	inactive: 0
CCOc1ccccc1C=C1C(=O)Nc2ccccc21 (10 µM)	inactive: 0	inactive: 0	inactive: 0	inactive: 0	inactive: 0	inactive: 0	inactive: 0	inactive: 0	inactive: 0	inactive: 0	inactive: 0	inactive: 0	inactive: 0	inactive: 0	inactive: 0	inactive: 0	inactive: 0	inactive: 0	inactive: 0	inactive: 0
O=S(=O)(c1cccc2cnccc12)N1CCNCC1 (10 µM)	inactive: 0	inactive: 0	inactive: 0	inactive: 0	inactive: 0	inactive: 0	inactive: 0	inactive: 0	inactive: 0	inactive: 0	inactive: 0	inactive: 0	inactive: 0	inactive: 0	inactive: 0	inactive: 0	inactive: 0	inactive: 0	inactive: 0	inactive: 0
CNC(=O)c1ccc(-c2cnc3cnc(-c4ccccc4)cn23)cc1 (10 µM)	inactive: 0	inactive: 0	inactive: 0	inactive: 0	inactive: 0	inactive: 0	inactive: 0	inactive: 0	inactive: 0	inactive: 0	inactive: 0	inactive: 0	inactive: 0	inactive: 0	inactive: 0	inactive: 0	inactive: 0	inactive: 0	inactive: 0	inactive: 0
O=C1NC(=O)C(=Cc2ccc3c(c2)OCO3)S1 (10 µM)	inactive: 0	inactive: 0	inactive: 0	inactive: 0	inactive: 0	inactive: 0	inactive: 0	inactive: 0	inactive: 0	inactive: 0	inactive: 0	inactive: 0	inactive: 0	inactive: 0	inactive: 0	inactive: 0	inactive: 0	inactive: 0	inactive: 0	inactive: 0
O=c1[nH]ccc2cc(OC3CCNCC3)ccc12 (10 µM)	inactive: 0	inactive: 0	inactive: 0	inactive: 0	inactive: 0	inactive: 0	inactive: 0	inactive: 0	inactive: 0	inactive: 0	inactive: 0	inactive: 0	inactive: 0	inactive: 0	inactive: 0	inactive: 0	inactive: 0	inactive: 0	inactive: 0	inactive: 0
NS(=O)(=O)c1ccc(N2N=C(c3ccccc3)CC2c2ccccc2)cc1 (stereo not given) (10 µM)	inactive: 0	inactive: 0	inactive: 0	inactive: 0	inactive: 0	inactive: 0	inactive: 0	inactive: 0	inactive: 0	inactive: 0	inactive: 0	inactive: 0	inactive: 0	inactive: 0	inactive: 0	inactive: 0	inactive: 0	inactive: 0	inactive: 0	inactive: 0
COc1ncc(Nc2ncc([C@@H](C)N3CCN(S(C)(=O)=O)CC3)cc2-c2nc(C)nc(N)n2)cc1F (10 µM)	inactive: 0	inactive: 0	inactive: 0	inactive: 0	inactive: 0	inactive: 0	inactive: 0	inactive: 0	inactive: 0	inactive: 0	inactive: 0	inactive: 0	inactive: 0	inactive: 0	inactive: 0	inactive: 0	inactive: 0	inactive: 0	inactive: 0	inactive: 0
COc1ccc(CCNc2ncc3c(=O)n(-c4cccc(F)c4)c(=O)[nH]c3n2)cc1OC (2 µM)	inactive: 0	inactive: 0	inactive: 0	inactive: 0	inactive: 0	inactive: 0	inactive: 0	inactive: 0	inactive: 0	inactive: 0	inactive: 0	inactive: 0	inactive: 0	inactive: 0	inactive: 0	inactive: 0	inactive: 0	inactive: 0	inactive: 0	inactive: 0
COc1ccc2c(c1)c(C1=C(c3c[nH]c4ccccc34)C(=O)NC1=O)cn2CCCN(C)C (10 µM)	inactive: 0	inactive: 0	inactive: 0	inactive: 0	inactive: 0	inactive: 0	inactive: 0	inactive: 0	inactive: 0	inactive: 0	inactive: 0	active: 1	inactive: 0	inactive: 0	inactive: 0	inactive: 0	inactive: 0	inactive: 0	inactive: 0	inactive: 0
O=C1NCCCc2c1oc1ccc(O)cc21 (10 µM)	inactive: 0	inactive: 0	inactive: 0	inactive: 0	inactive: 0	inactive: 0	inactive: 0	inactive: 0	inactive: 0	inactive: 0	inactive: 0	inactive: 0	inactive: 0	inactive: 0	inactive: 0	inactive: 0	inactive: 0	inactive: 0	inactive: 0	inactive: 0
CC(C)C[C@H](NC(=O)[C@H](CCCCN)NC(=O)[C@H](CO)NC(=O)[C@@H](N)CC(C)C)C(N)=O [LSKL, Inhibitor of Thrombospondin (TSP-1) (TFA)] (10 µM)	inactive: 0	inactive: 0	inactive: 0	inactive: 0	inactive: 0	inactive: 0	inactive: 0	inactive: 0	inactive: 0	inactive: 0	inactive: 0	inactive: 0	inactive: 0	inactive: 0	inactive: 0	inactive: 0	inactive: 0	inactive: 0	inactive: 0	inactive: 0
COC(=O)N[C@@H](C)CNc1nccc(-c2cn(C(C)C)nc2-c2cc(Cl)cc(NS(C)(=O)=O)c2F)n1 [Encorafenib] (10 µM)	inactive: 0	inactive: 0	inactive: 0	inactive: 0	inactive: 0	inactive: 0	inactive: 0	inactive: 0	inactive: 0	inactive: 0	inactive: 0	inactive: 0	inactive: 0	inactive: 0	inactive: 0	inactive: 0	inactive: 0	inactive: 0	inactive: 0	inactive: 0
NC(=O)c1ccc(-c2cnn3ccc(NCc4cccnc4)nc23)cc1 (2.5 µM)	inactive: 0	inactive: 0	inactive: 0	inactive: 0	inactive: 0	inactive: 0	inactive: 0	inactive: 0	inactive: 0	inactive: 0	inactive: 0	inactive: 0	inactive: 0	inactive: 0	inactive: 0	inactive: 0	inactive: 0	inactive: 0	inactive: 0	inactive: 0
COC1(C(=O)N[C@@H](C)c2ccc(-n3cc(F)cn3)nc2)CCC(c2nc(C)cc(Nc3cc(C)[nH]n3)n2)CC1 (stereo partly drawn) [trans-Pralsetinib] (2.5 µM)	inactive: 0	inactive: 0	inactive: 0	inactive: 0	inactive: 0	inactive: 0	inactive: 0	inactive: 0	inactive: 0	inactive: 0	inactive: 0	inactive: 0	inactive: 0	inactive: 0	inactive: 0	inactive: 0	inactive: 0	inactive: 0	inactive: 0	inactive: 0
COc1cc(N2CCC(N3CCN(C)CC3)CC2)ccc1Nc1nc2c(c(Nc3ccccc3S(=O)(=O)NC(C)C)n1)CCN2 [Conteltinib] (10 µM)	inactive: 0	inactive: 0	inactive: 0	inactive: 0	inactive: 0	inactive: 0	inactive: 0	inactive: 0	inactive: 0	inactive: 0	inactive: 0	inactive: 0	inactive: 0	inactive: 0	inactive: 0	inactive: 0	inactive: 0	inactive: 0	inactive: 0	inactive: 0
c1ccc(-c2oc3ncnc(NC[C@@H]4CCCO4)c3c2-c2ccccc2)cc1 (2.5 µM)	inactive: 0	inactive: 0	inactive: 0	inactive: 0	inactive: 0	inactive: 0	inactive: 0	inactive: 0	inactive: 0	inactive: 0	inactive: 0	inactive: 0	inactive: 0	inactive: 0	inactive: 0	inactive: 0	inactive: 0	inactive: 0	inactive: 0	inactive: 0

Single values from the entries so far:
Under kinase-Nluc reporter destabilization hit call [16], NS(=O)(=O)c1ccc(N2N=C(c3ccccc3)CC2c2ccccc2)cc1 (stereo not given) (10 µM) is entered as inactive: 0
Under kinase-Nluc reporter destabilization hit call [17], COc1cc(N2CCC(N3CCN(C)CC3)CC2)ccc1Nc1nc2c(c(Nc3ccccc3S(=O)(=O)NC(C)C)n1)CCN2 [Conteltinib] (10 µM) is entered as inactive: 0
